In US20250115886A1:
These are yes or no findings as the source states them, for the method shown. Some results given as binding are weak or reduced against the parent protein; the word gives no strength.

Biological target: SZ1-(RGG)3-GFP scaffold (Caenorhabditis elegans)
Assay: fluorescence microscopy of client recruitment to scaffold condensates in yeast

binding: binds
B1: mScarlet-SZ2 (protein, not shown: large carriers)
chain: MARNAYLRKKIARLKKDNLQLERDEQNLEKIIANLRDEIARLENEVASHEQ
